Structures are written as SMILES.

This data set is described as follows: Endogenous GA1 and GA4 levels in mature soybean seeds (GC/MS). Set-up: species or system Glycine max.

With `C=C1C[C@]23C[C@@]1(O)CC[C@H]2[C@@]12CC[C@H](O)[C@@](C)(C(=O)O1)[C@H]2[C@@H]3C(=O)O` [GA1], the “level in mature A3237 soybean seeds” value (purification Method B) was 0.14 ng/gfwt.

For `C=C1C[C@]23C[C@H]1CC[C@H]2[C@@]12CC[C@H](O)[C@@](C)(C(=O)O1)[C@H]2[C@@H]3C(=O)O` [GA4], the “level in mature A3237 soybean seeds” value amounted to 0.33 ng/g fwt (based on three experiments) and 0.33 ng/gfwt (purification Method A).

The record behind these values is patent US6723897B2, “Methods for controlling gibberellin levels” (Monsanto Technology, LLC, priority 1998, dated 2004).
